Test [1] concerns the target HSV-2 protein gG as used in the Cos7 cell-based immunofluorescence validation (Herpes simplex virus 2) (UniProt P13290). Description: Cos7 cell-based immunofluorescence, FIG. 20.
Test [2] has the same target. Description: Cos7 cell-based immunofluorescence validation (FIG. 20), UNC5D-Fc.

By UniProt entry, the sequences of proteins in these tests, tags left out. Where a name states a change or a piece, a line headed by the entry shows the natural chain unless it says otherwise. Residues count along the entry.
UniProt P13290: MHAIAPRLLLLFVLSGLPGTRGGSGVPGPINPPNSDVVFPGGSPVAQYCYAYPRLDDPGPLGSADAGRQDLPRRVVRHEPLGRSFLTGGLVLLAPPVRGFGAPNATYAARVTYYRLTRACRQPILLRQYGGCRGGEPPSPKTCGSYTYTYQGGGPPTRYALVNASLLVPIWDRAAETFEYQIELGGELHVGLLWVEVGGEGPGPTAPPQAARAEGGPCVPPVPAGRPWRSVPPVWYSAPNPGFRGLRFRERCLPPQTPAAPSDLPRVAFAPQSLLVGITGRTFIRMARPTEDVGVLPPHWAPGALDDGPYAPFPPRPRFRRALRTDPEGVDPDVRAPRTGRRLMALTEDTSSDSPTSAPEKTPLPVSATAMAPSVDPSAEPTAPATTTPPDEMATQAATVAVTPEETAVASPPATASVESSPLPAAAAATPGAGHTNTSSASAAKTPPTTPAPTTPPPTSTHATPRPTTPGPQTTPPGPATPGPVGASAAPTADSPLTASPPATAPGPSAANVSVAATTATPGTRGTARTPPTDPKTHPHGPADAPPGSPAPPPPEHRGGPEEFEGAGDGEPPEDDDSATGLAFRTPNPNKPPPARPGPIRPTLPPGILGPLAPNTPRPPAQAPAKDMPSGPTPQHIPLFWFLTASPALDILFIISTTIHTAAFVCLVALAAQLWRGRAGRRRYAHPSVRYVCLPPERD
UniProt Q6UXZ4, residues 33-379: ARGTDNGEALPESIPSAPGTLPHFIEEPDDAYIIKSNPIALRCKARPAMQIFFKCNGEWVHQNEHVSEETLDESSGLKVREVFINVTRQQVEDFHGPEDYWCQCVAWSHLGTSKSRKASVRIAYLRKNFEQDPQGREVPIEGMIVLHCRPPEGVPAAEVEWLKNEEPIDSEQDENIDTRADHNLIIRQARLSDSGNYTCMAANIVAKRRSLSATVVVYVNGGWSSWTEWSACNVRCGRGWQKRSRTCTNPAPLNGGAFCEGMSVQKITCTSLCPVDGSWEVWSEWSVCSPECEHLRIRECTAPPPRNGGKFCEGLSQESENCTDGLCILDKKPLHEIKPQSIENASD

Results are given in words; binding and its absence hold for the method and conditions named. Some results given as binding are weak or reduced against the parent protein; the word gives no strength.

On to “UNC5D-Fc (from UniProt Q6UXZ4 33-379) (Fc fusion)”, for which the binding result in test [1] and in test [2] was “binds” each time.

Source of the values: patent publication US20240011017A1.
